Measurements as given in PubChem BioAssay AID1519 (National Center for Advancing Translational Sciences (NCATS), 2009).
The list shows a part of the results.

Test: qHTS Assay for Lipid Storage Modulators
Conditions: Drosophila S3 cells, BODIPY lipid droplet/cell ratio, laser cytometry, cells loaded with oleic acid
[1] = measured here: cell count channel max response
[2] = measured here: lipid channel max response

Structure (SMILES)	max response [1] [%]	max response [2] [%]
NC(=O)Nc1ccc([As](=O)(O)O)cc1	12.2	9.24
CN(CCCl)CCCl	-16.7	-23.7
